Measured data: PubChem BioAssay AID493246 (Drosophila RNAi Screening Center, 2011)

Assay: 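Genome-wide search for dsRNAs that reduce cell number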 (primary screen)
Cell system: Drosophila Kc and S2R+ cells
Reagents: long dsRNA against Drosophila genes
Measured: 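Raw, unnormalised count of remaining cells in each well; per-plate z-scores of cell number underlie the calls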
Reading the numbers: Kc cell number and S2R+ cell number: higher = more cells remaining
Active means: 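Active when the per-plate z-score of cell number is 3 or more in the direction of fewer cells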
The screen tested about 21,000 reagents; shown is an unselected part of those with a known target gene and a result. Over the whole deposit, 429 (2%) got an active call. 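Values are raw and not normalised between plates; calls rest on per-plate z-scores that were not deposited.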 Entries without a mark were called inactive. The numbers tell different reagents against one gene apart. Names joined by + are all predicted targets of the reagent. The record does not give: the amount of reagent, the time to read-out.

Kc cell number, rep 1	Kc cell number, rep 2	S2R+ cell number, rep 1	S2R+ cell number, rep 2	target gene	reagent no.
1.56e6	1.59e6	1.24e6	1.65e6	MESR6	1
1.61e6	1.62e6	1.24e6	1.33e6	CG5493 + CG5327	1
1.52e6 (active)	1.76e6	7.24e5	8.02e5	myd	1
1.41e6	1.36e6	1.06e6	1.18e6	myd	2
1.53e6	1.63e6	1.24e6	1.32e6	Cortactin	1
1.47e6	1.55e6	1.40e6	1.28e6	frm	1
1.47e6	1.48e6	1.12e6	1.27e6	CG8837	1
1.41e6	1.51e6	1.01e6	1.08e6	CG7907	1
1.60e6	1.39e6	1.02e6	1.38e6	CG13436	1
1.30e6	1.22e6	1.22e6	1.25e6	PGRP-LD + Cralbp + Pmi	1
1.45e6	1.49e6	1.22e6	3.53e5	eEF2	1
1.72e6	1.64e6	1.39e6	1.47e6	Or67c	1
1.48e6	1.41e6	1.00e6	1.17e6	CG34002	1
1.55e6	1.61e6	1.05e6	1.28e6	CG34002	2
1.34e6	1.37e6	1.17e6	1.22e6	Naprt	1
1.53e6	1.54e6	9.95e5	1.12e6	CG13365	1
1.46e6	1.58e6	1.25e6	1.36e6	CG18636	1
1.23e6	1.29e6	1.05e6	1.09e6	Rcd5	1
1.45e6	1.50e6	1.03e6	1.18e6	CG17234	1
1.46e6	1.42e6	1.14e6	1.26e6	baz	1
1.37e6	1.38e6	1.40e6	1.30e6	CG4669	1

Part of the list above, set out differently.
{"target gene":"CG34002","reagent no.":2,"Kc cell number, rep 1":1.55e6,"Kc cell number, rep 2":1.61e6,"S2R+ cell number, rep 1":1.05e6,"S2R+ cell number, rep 2":1.28e6}
{"target gene":"Naprt","reagent no.":1,"Kc cell number, rep 1":1.34e6,"Kc cell number, rep 2":1.37e6,"S2R+ cell number, rep 1":1.17e6,"S2R+ cell number, rep 2":1.22e6}
{"target gene":"CG13365","reagent no.":1,"Kc cell number, rep 1":1.53e6,"Kc cell number, rep 2":1.54e6,"S2R+ cell number, rep 1":9.95e5,"S2R+ cell number, rep 2":1.12e6}
{"target gene":"CG18636","reagent no.":1,"Kc cell number, rep 1":1.46e6,"Kc cell number, rep 2":1.58e6,"S2R+ cell number, rep 1":1.25e6,"S2R+ cell number, rep 2":1.36e6}
{"target gene":"Rcd5","reagent no.":1,"Kc cell number, rep 1":1.23e6,"Kc cell number, rep 2":1.29e6,"S2R+ cell number, rep 1":1.05e6,"S2R+ cell number, rep 2":1.09e6}
{"target gene":"CG17234","reagent no.":1,"Kc cell number, rep 1":1.45e6,"Kc cell number, rep 2":1.50e6,"S2R+ cell number, rep 1":1.03e6,"S2R+ cell number, rep 2":1.18e6}

Additional reagents follow:
Kc cell number, rep 1	Kc cell number, rep 2	S2R+ cell number, rep 1	S2R+ cell number, rep 2	target gene	reagent no.
1.34e6	1.39e6	1.11e6	1.26e6	CG17260	1
1.63e6	1.62e6	1.23e6	1.35e6	mAcon2	1
5.23e5		8.73e5		Moe	1
1.77e6	1.84e6	1.26e6	1.33e6	CG13590	1
1.56e6	1.62e6	1.35e6	1.49e6	Vha16-1	1
1.76e6	1.77e6	1.21e6	1.33e6	TrpRS	1
1.48e6	1.52e6	1.14e6	1.25e6	CG15128	1
1.56e6	1.59e6	1.06e6	1.23e6	mal	1
1.51e6	1.52e6	9.06e5	1.06e6	Sf3b6	1
1.59e6	1.55e6	1.35e6	1.46e6	Osi3	1
1.30e6	1.40e6	1.07e6	1.25e6	Hel89B	1
1.61e6	1.57e6	1.32e6	8.92e5	CG4476	1
1.47e6	1.51e6	1.34e6	1.41e6	CG4646	1
1.20e6	1.52e6	1.10e6	1.15e6	Flo2	1
1.58e6	1.59e6	1.15e6	1.23e6	Flo2	2
1.41e6	1.76e6	1.04e6	1.20e6	CG9184	1
1.51e6	1.51e6	1.04e6	1.13e6	CG12715	1
1.48e6	1.33e6	1.09e6	1.21e6	CG14000 + bchs	1
1.42e6	1.47e6	1.15e6	1.23e6	Cht2	1
1.30e6	1.38e6	1.06e6	1.15e6	CG6785	1
1.60e6	1.66e6	1.28e6	1.38e6	CG12814	1
1.66e6	1.61e6	1.22e6	1.26e6	CG12814	2
6.39e5		6.83e5		CG15127	1
1.56e6	1.60e6	1.12e6	1.27e6	CG15127	2
1.46e6	1.63e6	1.34e6	1.34e6	Obp83cd	1
1.36e6	1.47e6	1.33e6	1.42e6	CG14711 + Zaf1	1
1.53e6	1.68e6	1.18e6	1.29e6	CG18788	1
1.60e6	1.54e6	1.04e6	1.12e6	CG11085	1
1.57e6	1.57e6	1.03e6	1.18e6	CG6867	1
1.13e6	1.26e6	8.60e5	1.02e6	ebd1	1
1.73e6	1.76e6	1.00e6	1.19e6	Obp19c	1
1.47e6	1.57e6	1.08e6	1.19e6	yem	1
1.46e6	1.52e6	9.97e5	1.07e6	yem	2
1.52e6	1.63e6	8.46e5	9.88e5	CG34181	1
1.36e6	1.57e6	1.08e6	1.21e6	Nup160	1
1.35e6	1.44e6	1.13e6	1.19e6	CG11961	1
1.25e6	1.43e6	1.17e6	1.25e6	SerRS	1
1.02e6	1.31e6	1.07e6	1.01e6	jigr1	1
1.62e6	1.60e6	9.91e5	1.09e6	jigr1	2
